# Measurements: PMC8877947
# Results are given in words; binding and its absence hold for the method and conditions named. Binding seen in cells or lysates may run through a third protein.
# Biological target: T1, barrier-to-autointegration factor-like protein (BAF-L) (mouse (endogenous in testis)) (UniProt Q8BVR0)
# T1 sequence: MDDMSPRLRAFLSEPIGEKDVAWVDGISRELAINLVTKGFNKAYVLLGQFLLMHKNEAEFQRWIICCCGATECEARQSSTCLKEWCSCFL
# Test: co-IP; testis lysate (50 mM Tris, 150 mM NaCl, 0.1-0.5% Tween 20, pH 7.5) precipitated with BAF-L antibody on protein A/G magnetic beads, 1 h at 4 °C; blots for histones H2A, H2B, H3, H4 and protamine 1
row,binding,Substance
1,no binding,histone H2A (mouse (endogenous in testis))
2,no binding,histone H2B (mouse (endogenous in testis))
